Data reported in patent US20250120944A1, “ANTIBACTERIAL COMPOSITION” (SEOUL NATIONAL UNIVERSITY R&DB FOUNDATION, priority 2021, published 2025).
Some of these results come from one statement about several compounds together.

Tested on: Salmonella typhimurium
Assay: colony formation measurement in Salmonella typhimurium-infected Raw264.7 macrophages
Format: cell-based
Settings: Raw264.7, MOI 10 for 30 minutes, 2-10 uM compound for 5 hours

Cl.NCCNC[C@@H](O)COc1ccc(OCc2ccc(F)cc2)c(OCc2ccc(F)cc2)c1 [Example 6, (R)-1-((2-aminoethyl)amino)-3-(3,4-bis((4-fluorobenzyl)oxy)phenoxy)propan-2-ol]
number of colonies produced by Salmonella typhimurium propagated in the Raw264.7 cell line, level relative to control group: ≤ 50 % of the control group
number of colonies produced by Salmonella typhimurium propagated in the Raw264.7 cell line (compared to the control group): decreases
